Laboratory results taken from article PMC4931343.
Results are given in words; binding and its absence hold for the method and conditions named. In cells and extracts the contact can be indirect. Some results given as binding are weak or reduced against the parent protein; the word gives no strength. For some of these results: Tags and fused reporters may be left off the sequences shown.

Amino acid sequences for entries named in this document (tags omitted). A change or cut given only in a name is not applied to a line headed by its entry. Chains listed by the source or under a name are the forms on record and can include a tag or linker. Residues count along the entry.
UniProt Q9CR42: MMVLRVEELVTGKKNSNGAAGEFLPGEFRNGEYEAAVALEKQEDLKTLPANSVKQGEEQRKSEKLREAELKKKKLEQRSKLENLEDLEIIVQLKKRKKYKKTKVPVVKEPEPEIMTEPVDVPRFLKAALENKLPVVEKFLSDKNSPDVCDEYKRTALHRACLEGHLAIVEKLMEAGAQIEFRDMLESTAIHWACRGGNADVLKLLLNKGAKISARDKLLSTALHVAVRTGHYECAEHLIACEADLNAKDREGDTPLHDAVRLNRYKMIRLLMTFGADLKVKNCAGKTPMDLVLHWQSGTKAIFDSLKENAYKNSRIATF
UniProt Q15327: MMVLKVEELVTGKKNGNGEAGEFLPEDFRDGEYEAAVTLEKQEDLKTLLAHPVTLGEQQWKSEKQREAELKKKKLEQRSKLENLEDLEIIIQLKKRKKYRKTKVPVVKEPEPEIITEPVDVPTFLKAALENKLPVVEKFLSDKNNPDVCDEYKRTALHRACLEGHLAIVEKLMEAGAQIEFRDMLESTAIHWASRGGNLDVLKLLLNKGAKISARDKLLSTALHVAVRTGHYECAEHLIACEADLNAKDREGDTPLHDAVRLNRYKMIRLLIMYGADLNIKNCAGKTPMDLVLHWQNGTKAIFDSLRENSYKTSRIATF
UniProt Q9GZV1: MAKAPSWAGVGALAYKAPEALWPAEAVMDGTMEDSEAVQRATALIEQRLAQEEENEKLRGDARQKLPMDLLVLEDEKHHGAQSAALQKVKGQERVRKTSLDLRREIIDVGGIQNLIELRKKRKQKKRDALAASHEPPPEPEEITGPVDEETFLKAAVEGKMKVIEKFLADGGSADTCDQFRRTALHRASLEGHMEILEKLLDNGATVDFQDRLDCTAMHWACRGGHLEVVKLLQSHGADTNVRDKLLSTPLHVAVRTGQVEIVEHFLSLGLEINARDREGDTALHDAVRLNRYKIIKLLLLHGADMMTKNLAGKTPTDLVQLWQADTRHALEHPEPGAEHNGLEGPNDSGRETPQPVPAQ
CARP2 coiled-coil region (amino acids 1-146) tagged on the C-terminus with YFP C-terminal fragment (YC): residues 1-146 of Q9GZV1
UniProt Q9WV06: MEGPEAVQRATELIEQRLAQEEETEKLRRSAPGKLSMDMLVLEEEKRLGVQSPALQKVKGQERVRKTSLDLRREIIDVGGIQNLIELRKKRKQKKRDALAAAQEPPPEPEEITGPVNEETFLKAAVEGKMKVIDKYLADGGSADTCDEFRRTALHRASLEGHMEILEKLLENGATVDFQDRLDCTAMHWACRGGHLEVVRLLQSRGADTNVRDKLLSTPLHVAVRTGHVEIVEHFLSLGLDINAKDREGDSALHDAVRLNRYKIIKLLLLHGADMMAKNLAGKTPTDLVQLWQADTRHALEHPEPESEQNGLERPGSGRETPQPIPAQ

T1: CARP3 coiled-coil region (amino acids 1-109) tagged on the C-terminus with YFP C-terminal fragment (YC) (human) (UniProt Q86SG2)
T1 sequence: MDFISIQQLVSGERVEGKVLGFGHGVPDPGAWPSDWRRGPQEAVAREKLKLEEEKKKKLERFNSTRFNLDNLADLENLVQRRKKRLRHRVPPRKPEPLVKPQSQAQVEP


Tests used:
[1] = biological target: CARP1 (endogenous, mouse heart) (mouse (endogenous in heart)) (UniProt Q9CR42); assay: co-IP; CARP1 antibodies (1 μg), protein G magnetic beads, soluble heart extracts of adult MLP knockout mice, 4 °C; immunoblot
[2] = biological target: CARP1 (endogenous, mouse heart) (mouse (endogenous in heart)) (UniProt Q9CR42); assay: co-IP; CARP1 antibodies (1 μg), protein G magnetic beads, soluble heart extracts of adult WT mice, 4 °C; immunoblot
[3] = biological target: GST-CARP1 (human CARP1/Ankrd1) (human) (UniProt Q15327); assay: pull-down; recombinant CARP1 or CARP2 (GST fusion) incubated with extracts of MLP knockout mouse hearts; glutathione-sepharose 4B; immunoblot; only the target purified
[4] = biological target: GST-CARP2 (human CARP2/Ankrd2) (human) (UniProt Q9GZV1); assay: as above
[5] = biological target: GST-CARP1 (human CARP1/Ankrd1) (human) (UniProt Q15327); assay: pull-down; 2 μg GST-CARP1 or GST-CARP2 incubated at 4 °C with soluble extract (IP-buffer: 150 mM NaCl, Tris-HCl pH 8, 0.2% NP-40, 0.2% SDS) holding GFP-PLCβ1; glutathione-sepharose 4B; immunoblot; only the target purified
[6] = biological target: GST-CARP2 (human CARP2/Ankrd2) (human) (UniProt Q9GZV1); assay: as above
[7] = biological target: CARP2 coiled-coil region (amino acids 1-146) tagged on the C-terminus with YFP C-terminal fragment (YC) (human) (UniProt Q9GZV1); assay: split reporter; split-YFP protein complementation in transfected cells; YN on PLCβ1 coiled coil, YC on CARP coiled coil; fluorescence microscopy
[8] = biological target: T1, CARP3 coiled-coil region (amino acids 1-109) tagged on the C-terminus with YFP C-terminal fragment (YC) (human); assay: as above

Molecule	binding [1]	binding [3]	binding [4]	binding [2]	other results
CARP2 (endogenous, mouse heart) (from UniProt Q9WV06 1-328)	binds				
PKCα (endogenous, mouse heart) (from UniProt P20444 1-672) (enzyme)	binds	binds	binds	no binding (condition: extracts of WT hearts)	
GFP-PLCβ1 coiled-coil domains (human phospholipase C β1, amino acids 978-1138) (domain or fragment, UniProt Q9NQ66-1 978-1138) SEPSSPDHGSSTIEQDLAALDAEMTQKLIDLKDKQQQQLLNLRQEQYYSEKYQKREHIKLLIQKLTDVAEECQNNQLKKLKEICEKEKKELKKKMDKKRQEKITEAKSKDKSQMEEEKTEMIRSYIQEVVQYIKRLEEAQSKRQEKLVEKHKEIRQQILDE					binding [5]: binds; binding [6]: binds
PLCβ1 (endogenous, mouse heart) (enzyme, UniProt Q9Z1B3 1-1216) MAGAQPGVHALQLKPVCVSDSLKKGTKFVKWDDDSTIVTPIILRTDPQGFFFYWTDQNKETELLDLSLVKDARCGKHAKAPKDPKLRELLDVGNIGHLEQRMITVVYGPDLVNISHLNLVAFQEEVAKEWTNEVFSLATNLLAQNMSRDAFLEKAYTKLKLQVTPEGRIPLKNIYRLFSADRKRVETALEACSLPSSRNDSIPQEDFTPDVYRVFLNNLCPRPEIDNIFSEFGAKSKPYLTVDQMMDFINLKQRDPRLNEILYPPLKQEQVQVLIEKYEPNSSLAKKGQMSVDGFMRYLSGEENGVVSPEKLDLNEDMSQPLSHYFINSSHNTYLTAGQLAGNSSVEMYRQVLLSGCRCVELDCWKGRTAEEEPVITHGFTMTTEISFKEVIEAIAECAFKTSPFPILLSFENHVDSPKQQAKMAEYCRLIFGDALLMEPLEKYPLESGVPLPSPMDLMYKILVKNKKKSHKSSEGSGKKKLSEQASNTYSDSSSVFEPSSPGAGEADTESDDDDDDDDCKKSSMDEGTAGSEAMATEEMSNLVNYIQPVKFESFEISKKRNKSFEMSSFVETKGLEQLTKSPVEFVEYNKMQLSRIYPKGTRVDSSNYMPQLFWNAGCQMVALNFQTVDLAMQINMGMYEYNGKSGYRLKPEFMRRPDKHFDPFTEGIVDGIVANTLSVKIISGQFLSDKKVGTYVEVDMFGLPVDTRRKAFKTKTSQGNAVNPVWEEEPIVFKKVVLPSLACLRIAAYEEGGKFIGHRILPVQAIRPGYHYICLRNERNQPLTLPAVFVYIEVKDYVPDTYADVIEALSNPIRYVNLMEQRAKQLAALTLEDEEEVKKEADPGETSSEAPSETRTTPAENGVNHTASLAPKPPSQAPHSQPAPGSVKAPAKTEDLIQSVLTEVEAQTIEELKQQKSFVKLQKKHYKEMKDLVKRHHKKTTELIKEHTTKYNEIQNDYLRRRAALEKSAKKDSKKKSEPSSPDHGSSAIEQDLAALDAEMTQKLIDLKDKQQQQLLNLRQEQYYSEKYQKREHIKLLIQKLTDVAEECQNNQLKKLKEICEKEKKELKKKMDKKRQEKITEAKSKDKSQMEEEKTEMIRSYIQEVVQYIKRLEEAQSKRQEKLVEKHNEIRQQILDEKPKLQTELEQEYQDKFKRLPLEILEFVQEAMKGKISEDSNHGSAPPSLASDAAKVNLKSPSSEEIERENPGREFDTPL	binds	binds	binds	no binding (condition: extracts of WT hearts)	
YN-PLCβ1 coiled-coil region (amino acids 980-1140) (domain or fragment, UniProt Q9NQ66-1 980-1140) PSSPDHGSSTIEQDLAALDAEMTQKLIDLKDKQQQQLLNLRQEQYYSEKYQKREHIKLLIQKLTDVAEECQNNQLKKLKEICEKEKKELKKKMDKKRQEKITEAKSKDKSQMEEEKTEMIRSYIQEVVQYIKRLEEAQSKRQEKLVEKHKEIRQQILDEKP					binding [7]: binds; binding [8]: binds
